Literature values, collected in patent publication US5905073A, “Use of 2-hydroxy-5-phenylazobenzoic acid derivatives as colon cancer chemopreventative and chemotherapeutic agents” (priority 1996, dated 1999).
The name of at least one read-out is uncertain.

Details: oral; as little as; cited from earlier work

O=C(O)CCNC(=O)c1ccc(/N=N/c2ccc(O)c(C(=O)O)c2)cc1 [Balsalazide]
ingested dose of prodrug found in plasma or urine: 0.3%
